Values from PubChem BioAssay AID504804 (Drosophila RNAi Screening Center, 2011)

Purpose: 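Fly genes whose loss lessens doxorubicin-driven cell death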 (primary screen)
Cell system: Drosophila Kc cells
Reagents: long dsRNA against Drosophila genes, 0.5 µg dsRNA per well
Timing: 96 h (48 h knock-down, then 48 h drug)
Treatment: doxorubicin 5 µg/ml for 48 h, added 48 h after dsRNA
Measurement: 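Viability measured as cellular ATP by luminescence after 48 h knock-down then 48 h doxorubicin at 5 µg/ml; unnormalised plate counts for each replicate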
Reading the numbers: raw ATP luminescence: higher = more viable cells, protection from doxorubicin
Hit rule: 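z-score of 2 or more over plate mean in both duplicates, retained only when retests and separate dsRNAs confirm the protection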
The screen tested about 19,000 reagents; this is a random part of those that have a named target and a result. Of all reagents, 47 (0.25%) were called active. 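Signals are raw, not normalised; exact z-scores behind calls not deposited; actives needed confirmation, so some wells reaching 2 SD are inactive.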 Unmarked entries are inactive. A plus sign joins genes that one reagent is predicted to hit.

no.	predicted target	amplicon	SD above plate mean	raw ATP luminescence, replicate 1	raw ATP luminescence, replicate 2
1	CG6013	DRSC15947		43283	45310
2	CG12182	DRSC08142		91737	76020
3	stl (stall)	DRSC04396		74533	63283
4	MED24 (Mediator complex subunit 24)	DRSC10944		62570	88017
5	CG34454	DRSC07864		1.65e5	1.09e5
6	CG31245	DRSC15498		64450	74290
7	CG42686 (retired record)	DRSC15247		13630	16420
8	CG42686 (retired record)	DRSC15248		55350	57890
9	CG14313	DRSC14792		61400	91770
10	Cyp304a1 (Cytochrome P450 304a1)	DRSC16623		98550	81650
11	chm (chameau)	DRSC03341		1.15e5	57413
12	CG32719	DRSC17525		2.56e5	2.49e5
13	Osi11 (Osiris 11)	DRSC12282		68630	59243
14	ksr (kinase suppressor of ras)	DRSC12379		67663	68530
15	CG4743	DRSC15636		54180	51750
16	Gr22b (Gustatory receptor 22b)	DRSC20911		2.03e5	3.13e5
17	PDZ-GEF (PDZ domain-containing guanine nucleotide exchange factor)	DRSC03231		27970	27050
18	CG11882	DRSC14425		30940	43720
19	vri (vrille)	DRSC03633		13953	16567
20	mia (meiosis I arrest)	DRSC12137		64493	20890
21	Tsf2 (Transferrin 2)	DRSC09751		47703	47187
22	CG13042	DRSC09923		45967	36853
23	Fas2 (Fasciclin 2)	DRSC17308		2.14e5	2.05e5
24	Fas2 (Fasciclin 2)	DRSC17309		2.18e5	2.15e5
25	Ts (Thymidylate synthase)	DRSC00795		31607	31013
26	CG12643	DRSC17849		4.04e5	2.96e5
27	CG42674	DRSC10066		1.79e5	1.39e5
28	CG42674	DRSC10067		97500	69800
29	CG42674	DRSC10811		76793	54777
30	Ten-m (Tenascin major)	DRSC11664		78963	56570
31	Ten-m (Tenascin major)	DRSC11882		75407	68787
32	Vps45 (Vacuolar protein sorting 45)	DRSC16398		57640	57373
33	Fpgs1 (Folylpolyglutamate synthase 1)	DRSC19857		2.91e5	2.68e5
34	CG9812	DRSC04566		62000	50067
35	Sodh1 (Sorbitol dehydrogenase 1)	DRSC12605		35890	30197
36	mRpL10 (mitochondrial ribosomal protein L10)	DRSC00312		1.03e5	70380
37	CG30414	DRSC04372		71947	61480

The list goes on; the last 5 above are carried over.
no.	predicted target	amplicon	SD above plate mean	raw ATP luminescence, replicate 1	raw ATP luminescence, replicate 2
33	Fpgs1 (Folylpolyglutamate synthase 1)	DRSC19857		2.91e5	2.68e5
34	CG9812	DRSC04566		62000	50067
35	Sodh1 (Sorbitol dehydrogenase 1)	DRSC12605		35890	30197
36	mRpL10 (mitochondrial ribosomal protein L10)	DRSC00312		1.03e5	70380
37	CG30414	DRSC04372		71947	61480
38	CG33093	DRSC15775		2.09e5	2.19e5
39	not (non-stop)	DRSC11378		30810	54170
40	Hsp70Aa + Hsp70Ab	DRSC21246		3.14e5	3.09e5
41	UbcE2M (NEDD8-conjugating enzyme UbcE2M)	DRSC10828	2 to 3 SD above plate mean (active)	60077	57703
42	CG2574	DRSC19862		4.17e5	3.33e5
43	CG4210	DRSC15551		66490	67650
44	polyph (polyphemus)	DRSC06254		47700	81113
45	alphaSnap (alpha Soluble NSF attachment protein)	DRSC11285		36547	37277
46	CG3916	DRSC15520		58023	46313
47	Sema1a (Semaphorin 1a)	DRSC03433		41837	68837
48	ppk23 (pickpocket 23)	DRSC20110		2.87e5	3.55e5
49	CG6695	DRSC16098		52103	56910
50	CG4404	DRSC19897		3.35e5	3.45e5
51	GstS1 (Glutathione S transferase S1)	DRSC07436		66983	70503
52	Npc2c (Niemann-Pick type C-2c)	DRSC15523		50140	46563
53	CG34199	DRSC05867		1.78e5	1.40e5
54	CG7582	DRSC16261		49880	37680
55	Fur1 (Furin 1)	DRSC13707		2.54e5	2.46e5
56	RhoGAP102A (Rho GTPase activating protein at 102A)	DRSC17110		2.10e5	1.89e5
57	RhoGAP102A (Rho GTPase activating protein at 102A)	DRSC17145		38720	48060
